Data: US4169096A, “Antibiotic compounds” (priority 1977, dated 1979)

Assay: in vivo
Settings: mouse

Q: Which concentration at 0.5 h (po, 25 mg/kg) does the source give for `CCC[C@@H]1C[C@@H](C(=O)N[C@@H]([C@H]2O[C@H](SC)[C@H](O)[C@@H](O)[C@H]2O)[C@H](C)Cl)N(C)C1` [Clindamycin] here?
A: 800 ng/mL

Q: And the concentration at 1 h (po, 25 mg/kg)?
A: 500 ng/mL

Q: And the concentration at 3 h (po, 25 mg/kg)?
A: 300 ng/mL

Q: What about the concentration at 0.5 h (po, 50 mg/kg) of the same molecule?
A: 900 ng/mL

Q: What about the concentration at 1 h (po, 50 mg/kg) of the same molecule?
A: 500 ng/mL

Q: And the concentration at 3 h (po, 50 mg/kg)?
A: 300 ng/mL

Q: And the concentration at 0.5 h (po, 100 mg/kg)?
A: 2800 ng/mL

Q: What about the concentration at 1 h (po, 100 mg/kg) of the same molecule?
A: 1300 ng/mL

Q: And the concentration at 3 h (po, 100 mg/kg)?
A: 600 ng/mL

Q: And the concentration at 0.5 h (sc, 25 mg/kg)?
A: 2100 ng/mL

Q: And the concentration at 1 h (sc, 25 mg/kg)?
A: 800 ng/mL

Q: And the concentration at 2 h (sc, 25 mg/kg)?
A: 400 ng/mL

Q: And the concentration at 0.5 h (sc, 50 mg/kg)?
A: 5800 ng/mL

Q: And the concentration at 1 h (sc, 50 mg/kg)?
A: 3400 ng/mL

Q: What about the concentration at 2 h (sc, 50 mg/kg) of the same molecule?
A: 300 ng/mL

Q: And the concentration at 0.5 h (sc, 100 mg/kg)?
A: 9500 ng/mL

Q: What about the concentration at 1 h (sc, 100 mg/kg) of the same molecule?
A: 5200 ng/mL

Q: What about the concentration at 2 h (sc, 100 mg/kg) of the same molecule?
A: 400 ng/mL
